Assay results reported in PMC8033514.
Where a chain is given by its changes, count along the chain named. Names may count otherwise. Results are given in words; binding and its absence hold for the method and conditions named. In cells and extracts the contact can be indirect. Some binding calls cover weakened binding; strength is not graded here. For some assays here: Tags and fused reporters may be left off the sequences shown. Each block holds one binder with its values, some of them ahead of it.

Experiments:
[1] = target: T1, Flag-LDB2 (wild type) (human) (UniProt O43679); experiment: co-IP; HEK293T co-transfected with FLAG and HA constructs, 48 h; lysis buffer 25 mM Tris-HCl pH 7.8, 125 mM NaCl, 1% Triton X-100, 0.5 mM EDTA; Flag-LDB2 captured with anti-Flag antibody on Protein G-Sepharose, 3 h; Western blot with anti-Flag and anti-HA
T1 sequence: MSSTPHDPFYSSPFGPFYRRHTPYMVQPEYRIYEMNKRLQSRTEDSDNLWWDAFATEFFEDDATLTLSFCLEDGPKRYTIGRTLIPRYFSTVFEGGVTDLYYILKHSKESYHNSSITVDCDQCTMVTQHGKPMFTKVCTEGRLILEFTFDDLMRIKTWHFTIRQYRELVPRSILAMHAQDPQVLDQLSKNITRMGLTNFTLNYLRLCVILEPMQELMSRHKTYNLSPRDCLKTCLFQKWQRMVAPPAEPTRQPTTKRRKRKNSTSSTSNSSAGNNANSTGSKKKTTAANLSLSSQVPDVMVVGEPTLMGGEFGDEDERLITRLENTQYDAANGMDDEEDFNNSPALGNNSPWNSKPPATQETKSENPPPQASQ

Flag-LDB2 T83N (human) = target: T2, Flag-LDB2 T83N (human) (UniProt O43679); experiment: as above
T2 sequence: T1 sequence with T83N

Flag-LDB2 P170L (human) = target: T3, Flag-LDB2 P170L (human) (UniProt O43679); experiment: as above
T3 sequence: T1 sequence with P170L

[2] = target: T4, LDB2, endogenous in mouse brain (mouse (endogenous in brain)) (UniProt O55203); experiment: co-IP; endogenous proteins in adult mouse brain lysate; immunocomplexes with an antibody against LDB2, LMO3 or SSBP3 or a control antibody; Western blot with anti-LDB2 or anti-SSBP3
T4 sequence: T1 sequence with T124A, N275T, A276T, T279A, T286P, N289S, S293A, S294T, P367A

B2: HA-LMO3 (protein, UniProt Q8TAP4 1-145)
chain: MLSVQPDTKPKGCAGCNRKIKDRYLLKALDKYWHEDCLKCACCDCRLGEVGSTLYTKANLILCRRDYLRLFGVTGNCAACSKLIPAFEMVMRAKDNVYHLDCFACQLCNQRFCVGDKFFLKNNMILCQTDYEEGLMKEGYAPQVR
binding (Flag-LDB2 T83N (human)): binds
binding (Flag-LDB2 P170L (human)): binds
binding [1]: binds

B4: HA-RLIM (wild type) (enzyme, UniProt Q9NVW2 1-624)
chain: MENSDSNDKGSGDQSAAQRRSQMDRLDREEAFYQFVNNLSEEDYRLMRDNNLLGTPGESTEEELLRRLQQIKEGPPPQNSDENRGGDSSDDVSNGDSIIDWLNSVRQTGNTTRSGQRGNQSWRAVSRTNPNSGDFRFSLEINVNRNNGSQNSENENEPSARRSSGENVENNSQRQVENPRSESTSARPSRSERNSTEALTEVPPTRGQRRARSRSPDHRRTRARAERSRSPLHPMSEIPRRSHHSISSQTFEHPLVNETEGSSRTRHHVTLRQQISGPELLSRGLFAASGTRNASQGAGSSDTAASGESTGSGQRPPTIVLDLQVRRVRPGEYRQRDSIASRTRSRSQTPNNTVTYESERGGFRRTFSRSERAGVRTYVSTIRIPIRRILNTGLSETTSVAIQTMLRQIMTGFGELSYFMYSDSDSEPTGSVSNRNMERAESRSGRGGSGGGSSSGSSSSSSSSSSSSSSSSSSSSPSSSSGGESSETSSDLFEGSNEGSSSSGSSGARREGRHRAPVTFDESGSLPFLSLAQFFLLNEDDDDQPRGLTKEQIDNLAMRSFGENDALKTCSVCITEYTEGNKLRKLPCSHEYHVHCIDRWLSENSTCPICRRAVLASGNRESVV
binding (Flag-LDB2 T83N (human)): binds
binding (Flag-LDB2 P170L (human)): binds
binding [1]: binds

B5: HA-RLIM S455F (enzyme, UniProt Q9NVW2 1-624)
chain: B4 chain with S455F
binding [1]: binds

B8: Flag-LDB2 (wild type) (protein, UniProt O43679 1-373)
chain: T1 sequence
binding (Flag-LDB2 T83N (human)): binds
binding (Flag-LDB2 P170L (human)): binds
binding [1]: binds

B9: HA-LHX2 (protein, UniProt P50458 1-406)
chain: MLFHSLSGPEVHGVIDEMDRRAKSEAPAISSAIDRGDTETTMPSISSDRAALCAGCGGKISDRYYLLAVDKQWHMRCLKCCECKLNLESELTCFSKDGSIYCKEDYYRRFSVQRCARCHLGISASEMVMRARDLVYHLNCFTCTTCNKMLTTGDHFGMKDSLVYCRLHFEALLQGEYPAHFNHADVAAAAAAAAAAKSAGLGAAGANPLGLPYYNGVGTVQKGRPRKRKSPGPGADLAAYNAALSCNENDAEHLDRDQPYPSSQKTKRMRTSFKHHQLRTMKSYFAINHNPDAKDLKQLAQKTGLTKRVLQVWFQNARAKFRRNLLRQENTGVDKSTDAALQTGTPSGPASELSNASLSPSSTPTTLTDLTSPTLPTVTSVLTSVPGNLEGHEPHSPSQTTLTNLF
binding (Flag-LDB2 T83N (human)): binds
binding (Flag-LDB2 P170L (human)): binds
binding [1]: binds

More lines, now with the values ahead:

binding [1]: binds
B1: HA-SSBP4 (protein, UniProt Q9BWG4 1-385)
chain: MYAKGGKGSAVPSDSQAREKLALYVYEYLLHIGAQKSAQTFLSEIRWEKNITLGEPPGFLHSWWCVFWDLYCAAPDRREACEHSGEAKAFQDYSAAAAPSPVMGSMAPGDTMAAGSMAAGFFQGPPGSQPSPHNPNAPMMGPHGQPFMSPRFPGGPRPTLRMPSQPPAGLPGSQPLLPGAMEPSPRAQGHPSMGGPMQRVTPPRGMASVGPQSYGGGMRPPPNSLAGPGLPAMNMGPGVRGPWASPSGNSIPYSSSSPGSYTGPPGGGGPPGTPIMPSPGDSTNSSENMYTIMNPIGQGAGRANFPLGPGPEGPMAAMSAMEPHHVNGSLGSGDMDGLPKSSPGAVAGLSNAPGTPRDDGEMAAAGTFLHPFPSESYSPGMTMSV

binding [1]: binds
B3: HA-SSBP2 (protein, UniProt P81877 1-361)
chain: MYGKGKSNSSAVPSDSQAREKLALYVYEYLLHVGAQKSAQTFLSEIRWEKNITLGEPPGFLHSWWCVFWDLYCAAPERRETCEHSSEAKAFHDYSAAAAPSPVLGNIPPGDGMPVGPVPPGFFQPFMSPRYPGGPRPPLRIPNQALGGVPGSQPLLPSGMDPTRQQGHPNMGGPMQRMTPPRGMVPLGPQNYGGAMRPPLNALGGPGMPGMNMGPGGGRPWPNPTNANSIPYSSASPGNYVGPPGGGGPPGTPIMPSPADSTNSGDNMYTLMNAVPPGPNRPNFPMGPGSDGPMGGLGGMESHHMNGSLGSGDMDSISKNSPNNMSLSNQPGTPRDDGEMGGNFLNPFQSESYSPSMTMSV

binding [1]: binds
B6: HA-SSBP3 (protein, UniProt Q9BWW4 1-388)
chain: MFAKGKGSAVPSDGQAREKLALYVYEYLLHVGAQKSAQTFLSEIRWEKNITLGEPPGFLHSWWCVFWDLYCAAPERRDTCEHSSEAKAFHDYSAAAAPSPVLGNIPPNDGMPGGPIPPGFFQGPPGSQPSPHAQPPPHNPSSMMGPHSQPFMSPRYAGGPRPPIRMGNQPPGGVPGTQPLLPNSMDPTRQQGHPNMGGSMQRMNPPRGMGPMGPGPQNYGSGMRPPPNSLGPAMPGINMGPGAGRPWPNPNSANSIPYSSSSPGTYVGPPGGGGPPGTPIMPSPADSTNSSDNIYTMINPVPPGGSRSNFPMGPGSDGPMGGMGGMEPHHMNGSLGSGDIDGLPKNSPNNISGISNPPGTPRDDGELGGNFLHSFQNDNYSPSMTMSV

binding [2]: binds
B7: SSBP3, endogenous in mouse brain (protein, UniProt Q9D032 1-388)
chain: B6 chain
